Measurements taken from publication PMC2949799.
Results are given in words; binding and its absence hold for the method and conditions named. Binding seen in cells or lysates may run through a third protein. Some entries that bind do so weakly or less than the wild type. Tags and fused reporters may be left off the sequences shown.

Sequences of proteins named here, by UniProt entry; tags and fusion partners are left off.
UniProt Q8NHY2: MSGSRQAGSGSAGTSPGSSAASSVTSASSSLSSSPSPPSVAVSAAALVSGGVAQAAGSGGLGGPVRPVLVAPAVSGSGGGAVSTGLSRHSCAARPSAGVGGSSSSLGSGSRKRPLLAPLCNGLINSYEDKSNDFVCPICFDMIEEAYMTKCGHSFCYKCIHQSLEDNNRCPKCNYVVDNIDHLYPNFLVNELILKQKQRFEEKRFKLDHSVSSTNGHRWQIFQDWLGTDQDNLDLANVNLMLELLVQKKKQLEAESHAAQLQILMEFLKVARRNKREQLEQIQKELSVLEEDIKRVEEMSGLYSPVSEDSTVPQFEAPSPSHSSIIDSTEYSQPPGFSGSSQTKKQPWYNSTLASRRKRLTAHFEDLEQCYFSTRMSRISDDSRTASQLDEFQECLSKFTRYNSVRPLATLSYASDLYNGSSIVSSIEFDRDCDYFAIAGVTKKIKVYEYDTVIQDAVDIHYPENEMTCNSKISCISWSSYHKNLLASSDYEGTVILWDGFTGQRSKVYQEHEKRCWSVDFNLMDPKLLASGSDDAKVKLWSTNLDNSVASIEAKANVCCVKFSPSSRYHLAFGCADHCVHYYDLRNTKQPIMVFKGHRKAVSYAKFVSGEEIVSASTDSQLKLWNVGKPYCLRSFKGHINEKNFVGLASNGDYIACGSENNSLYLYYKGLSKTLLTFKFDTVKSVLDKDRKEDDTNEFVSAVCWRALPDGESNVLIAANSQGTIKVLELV

Target: Myc-COP1 (WT [wild type]) (UniProt Q8NHY2)
Assay: co-IP; 293T cells cotransfected with Myc-COP1 (WT or S387A) and Flag-14-3-3σ constructs; lysates immunoprecipitated with anti-Myc, immunoblotted with anti-Flag; proteasome inhibitors before harvesting (Figure 3A)

Binder | binding
N-terminal Flag-14-3-3σ (1-161) (domain or fragment, UniProt P31947 1-161) MERASLIQKAKLAEQAERYEDMAAFMKGAVEKGEELSCEERNLLSVAYKNVVGGQRAAWRVLSSIEQKSNEEGSEEKGPEVREYREKVETELQGVCDTVLGLLDSHLIKEAGDAESRVFYLKMKGDYYRYLAEVATGDDKKRIIDSARSAYQEAMDISKKE | binds
C-terminal Flag-14-3-3σ (153-248) (domain or fragment, UniProt P31947 153-248) EAMDISKKEMPPTNPIRLGLALNFSVFHYEIANSPEEAISLAKTTFDEAMADLHTLSEDSYKDSTLIMQLLRDNLTLWTADNAGEEGGEAPQEPQS | no binding
